PubChem BioAssay AID1259254, NCATS, 2017
Aim: 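Finding genes that stop cells copying their DNA twice in one cycle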 (primary screen). Cell system: human HCT116 colorectal cancer cells. Reagent: single siRNA against human genes. Timing: 3 days. Read-out: 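Nuclei stained with Hoechst and imaged; cell-cycle phase assigned by DNA content; G2 share scaled per plate, non-targeting siRNA 0%, GMNN siRNA 100%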. Scale: G2 robust z-score and G2 cells, % of GMNN control: higher = more G2 cells, more excess DNA replication. Hit rule: 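An siRNA counts as active if its G2 robust z-score lies at least 5 MADs above the screen median; here such calls match roughly 38% of GMNN control or more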.
The deposit covers about 59,000 reagents; below is a random part of them. About 1,550 of them (2.6%) count as active. 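G2 share is only a proxy for re-replication; each gene was hit by three separate siRNAs, and active genes were retested.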 Unmarked entries are inactive. The numbers tell different reagents against one gene apart. Further read-outs or replicates are left out here. The record does not give: the amount of reagent.

{"gene symbol": "DYNC1LI2", "reagent no.": 1, "G2 robust z-score": 0.66, "G2 cells, % of GMNN control": 7.61}
{"gene symbol": "DYNC1LI2", "reagent no.": 2, "G2 robust z-score": 0.693, "G2 cells, % of GMNN control": 7.84}
{"gene symbol": "DYNC1LI2", "reagent no.": 3, "G2 robust z-score": 3.43, "G2 cells, % of GMNN control": 27.1}
{"gene symbol": "IL31", "reagent no.": 1, "G2 robust z-score": 2.35, "G2 cells, % of GMNN control": 19.5}
{"gene symbol": "IL31", "reagent no.": 2, "G2 robust z-score": 0.0311, "G2 cells, % of GMNN control": 3.19}
{"gene symbol": "IL31", "reagent no.": 3, "G2 robust z-score": -0.459, "G2 cells, % of GMNN control": -0.261}
{"gene symbol": "SLC5A1", "reagent no.": 1, "G2 robust z-score": 1.11, "G2 cells, % of GMNN control": 10.8}
{"gene symbol": "SLC5A1", "reagent no.": 2, "G2 robust z-score": 0.0834, "G2 cells, % of GMNN control": 3.55}
{"gene symbol": "SLC5A1", "reagent no.": 3, "G2 robust z-score": 1.97, "G2 cells, % of GMNN control": 16.8}
{"gene symbol": "TRAPPC6A", "reagent no.": 1, "G2 robust z-score": 0.0842, "G2 cells, % of GMNN control": 3.56}
{"gene symbol": "TRAPPC6A", "reagent no.": 2, "G2 robust z-score": -0.26, "G2 cells, % of GMNN control": 1.14}
{"gene symbol": "TRAPPC6A", "reagent no.": 3, "G2 robust z-score": -0.3, "G2 cells, % of GMNN control": 0.853}

Just “G2 robust z-score”, for 2 of the entries above:
TRAPPC6A #1 = 0.0842
TRAPPC6A #2 = -0.26
